Reference: the supplement of paper PMC6411743
± gives the standard deviation of the averaged measurements. The list shows a part of the results.

Protein sequences, listed by entry. Tags and fused reporters are not part of them. Lines headed by an entry give the natural chain unless they say otherwise; changes in a name come on top.
UniProt Q9NW08: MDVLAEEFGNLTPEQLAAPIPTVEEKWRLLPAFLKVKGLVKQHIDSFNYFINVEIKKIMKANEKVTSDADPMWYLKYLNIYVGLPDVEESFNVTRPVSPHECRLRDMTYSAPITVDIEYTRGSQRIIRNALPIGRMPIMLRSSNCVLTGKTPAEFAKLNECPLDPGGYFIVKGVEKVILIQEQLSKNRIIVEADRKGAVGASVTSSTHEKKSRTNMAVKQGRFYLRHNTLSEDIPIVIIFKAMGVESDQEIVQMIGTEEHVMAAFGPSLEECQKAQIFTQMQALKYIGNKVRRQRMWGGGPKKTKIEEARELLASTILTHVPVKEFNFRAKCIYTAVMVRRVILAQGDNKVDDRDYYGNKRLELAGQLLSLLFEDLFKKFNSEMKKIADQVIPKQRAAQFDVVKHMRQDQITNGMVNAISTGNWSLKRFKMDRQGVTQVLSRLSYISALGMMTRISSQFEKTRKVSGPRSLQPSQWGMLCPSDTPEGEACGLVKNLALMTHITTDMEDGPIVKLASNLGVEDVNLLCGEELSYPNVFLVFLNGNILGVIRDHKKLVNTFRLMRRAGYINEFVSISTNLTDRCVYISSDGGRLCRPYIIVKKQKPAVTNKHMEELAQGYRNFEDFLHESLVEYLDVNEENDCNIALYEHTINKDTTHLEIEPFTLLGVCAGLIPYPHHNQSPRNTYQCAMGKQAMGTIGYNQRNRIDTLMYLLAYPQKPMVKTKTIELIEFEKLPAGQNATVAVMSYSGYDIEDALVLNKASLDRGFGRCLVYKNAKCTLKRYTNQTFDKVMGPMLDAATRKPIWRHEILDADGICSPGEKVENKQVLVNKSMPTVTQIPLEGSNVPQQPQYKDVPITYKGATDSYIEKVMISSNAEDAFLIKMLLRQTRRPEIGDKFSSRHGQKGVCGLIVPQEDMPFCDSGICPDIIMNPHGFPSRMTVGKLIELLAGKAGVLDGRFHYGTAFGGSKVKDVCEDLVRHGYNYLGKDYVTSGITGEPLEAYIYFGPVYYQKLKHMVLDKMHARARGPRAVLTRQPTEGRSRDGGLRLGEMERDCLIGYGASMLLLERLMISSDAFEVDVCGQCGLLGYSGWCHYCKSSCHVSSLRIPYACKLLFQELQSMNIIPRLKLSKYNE
UniProt Q9NX47: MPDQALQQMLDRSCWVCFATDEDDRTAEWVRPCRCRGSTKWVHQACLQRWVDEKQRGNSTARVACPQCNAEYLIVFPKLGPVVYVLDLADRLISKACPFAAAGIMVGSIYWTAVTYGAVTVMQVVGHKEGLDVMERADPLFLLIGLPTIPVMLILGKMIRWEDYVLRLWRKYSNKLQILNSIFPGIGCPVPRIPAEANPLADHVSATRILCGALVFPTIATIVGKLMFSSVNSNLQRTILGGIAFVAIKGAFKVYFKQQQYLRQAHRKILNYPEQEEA
UniProt Q9NXV6: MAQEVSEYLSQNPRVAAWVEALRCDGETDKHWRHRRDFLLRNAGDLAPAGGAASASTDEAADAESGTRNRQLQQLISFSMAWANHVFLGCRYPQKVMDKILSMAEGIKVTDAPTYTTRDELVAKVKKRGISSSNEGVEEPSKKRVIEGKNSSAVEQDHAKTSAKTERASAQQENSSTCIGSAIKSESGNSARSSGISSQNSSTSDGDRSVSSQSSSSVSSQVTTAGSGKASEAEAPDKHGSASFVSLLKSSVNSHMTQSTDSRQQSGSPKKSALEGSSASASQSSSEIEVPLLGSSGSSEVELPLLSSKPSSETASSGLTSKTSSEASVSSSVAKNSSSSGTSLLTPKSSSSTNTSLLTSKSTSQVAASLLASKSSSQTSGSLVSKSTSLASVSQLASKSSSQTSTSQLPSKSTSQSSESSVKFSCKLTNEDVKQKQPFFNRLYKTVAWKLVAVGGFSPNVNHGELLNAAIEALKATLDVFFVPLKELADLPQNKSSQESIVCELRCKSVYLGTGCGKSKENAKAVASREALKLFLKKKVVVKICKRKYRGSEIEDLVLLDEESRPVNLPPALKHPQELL
UniProt Q9NUP7: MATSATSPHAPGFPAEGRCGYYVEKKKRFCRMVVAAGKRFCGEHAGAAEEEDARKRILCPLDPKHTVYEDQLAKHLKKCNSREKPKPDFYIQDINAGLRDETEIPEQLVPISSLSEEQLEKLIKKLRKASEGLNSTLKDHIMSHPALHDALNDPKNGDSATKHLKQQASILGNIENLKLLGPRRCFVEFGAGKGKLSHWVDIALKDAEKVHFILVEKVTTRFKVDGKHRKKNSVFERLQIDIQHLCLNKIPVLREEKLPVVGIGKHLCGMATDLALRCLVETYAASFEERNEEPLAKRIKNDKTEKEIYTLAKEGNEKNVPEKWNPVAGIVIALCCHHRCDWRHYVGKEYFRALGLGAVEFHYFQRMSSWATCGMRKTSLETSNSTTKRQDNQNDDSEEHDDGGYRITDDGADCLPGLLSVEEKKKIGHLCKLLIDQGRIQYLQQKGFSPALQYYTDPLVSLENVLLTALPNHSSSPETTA
UniProt Q9UBV2: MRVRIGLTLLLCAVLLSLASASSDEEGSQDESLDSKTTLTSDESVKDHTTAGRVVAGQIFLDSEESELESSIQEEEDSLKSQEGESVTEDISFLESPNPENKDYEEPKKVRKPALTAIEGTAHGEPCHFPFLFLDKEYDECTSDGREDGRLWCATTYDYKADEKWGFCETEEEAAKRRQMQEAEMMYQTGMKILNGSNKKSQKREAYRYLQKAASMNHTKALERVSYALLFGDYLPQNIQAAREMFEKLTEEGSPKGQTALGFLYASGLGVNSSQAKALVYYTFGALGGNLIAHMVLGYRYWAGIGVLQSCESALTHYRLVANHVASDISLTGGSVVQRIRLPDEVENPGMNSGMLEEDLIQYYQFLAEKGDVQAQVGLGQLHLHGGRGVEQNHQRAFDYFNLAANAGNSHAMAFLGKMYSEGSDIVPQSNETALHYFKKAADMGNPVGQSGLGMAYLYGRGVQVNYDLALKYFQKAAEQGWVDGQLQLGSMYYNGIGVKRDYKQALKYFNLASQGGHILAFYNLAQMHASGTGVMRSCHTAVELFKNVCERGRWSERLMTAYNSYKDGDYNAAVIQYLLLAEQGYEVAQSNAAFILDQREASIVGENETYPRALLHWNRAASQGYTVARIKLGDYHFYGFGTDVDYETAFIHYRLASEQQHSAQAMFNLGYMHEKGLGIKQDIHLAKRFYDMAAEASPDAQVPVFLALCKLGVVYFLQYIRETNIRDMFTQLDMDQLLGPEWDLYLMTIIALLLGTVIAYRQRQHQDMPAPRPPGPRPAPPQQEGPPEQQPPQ
UniProt Q9NWH9: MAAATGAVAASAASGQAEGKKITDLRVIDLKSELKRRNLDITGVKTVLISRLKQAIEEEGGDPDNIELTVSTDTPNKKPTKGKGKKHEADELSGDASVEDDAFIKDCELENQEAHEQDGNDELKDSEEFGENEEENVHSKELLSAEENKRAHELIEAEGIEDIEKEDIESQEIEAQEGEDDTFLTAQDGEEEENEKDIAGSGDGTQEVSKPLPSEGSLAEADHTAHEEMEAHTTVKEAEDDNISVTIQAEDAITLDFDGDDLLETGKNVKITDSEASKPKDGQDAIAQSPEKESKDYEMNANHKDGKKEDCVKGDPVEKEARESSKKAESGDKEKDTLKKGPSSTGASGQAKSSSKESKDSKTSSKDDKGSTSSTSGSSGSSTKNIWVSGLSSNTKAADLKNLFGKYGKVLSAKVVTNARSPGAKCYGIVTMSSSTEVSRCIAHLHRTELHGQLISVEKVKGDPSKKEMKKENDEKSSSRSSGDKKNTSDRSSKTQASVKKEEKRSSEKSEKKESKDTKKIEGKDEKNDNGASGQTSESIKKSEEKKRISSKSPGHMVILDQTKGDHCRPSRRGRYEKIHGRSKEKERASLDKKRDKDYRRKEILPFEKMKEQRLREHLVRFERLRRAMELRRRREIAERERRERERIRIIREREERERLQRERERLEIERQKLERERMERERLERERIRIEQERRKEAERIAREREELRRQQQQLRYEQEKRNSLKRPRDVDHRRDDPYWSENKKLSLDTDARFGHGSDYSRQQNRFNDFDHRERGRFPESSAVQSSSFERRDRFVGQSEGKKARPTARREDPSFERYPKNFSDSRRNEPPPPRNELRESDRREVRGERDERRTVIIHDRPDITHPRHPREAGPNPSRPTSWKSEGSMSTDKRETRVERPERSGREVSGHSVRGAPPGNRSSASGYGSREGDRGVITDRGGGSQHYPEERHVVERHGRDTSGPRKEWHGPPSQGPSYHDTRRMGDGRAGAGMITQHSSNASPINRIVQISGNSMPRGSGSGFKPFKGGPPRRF
UniProt Q9UDT6: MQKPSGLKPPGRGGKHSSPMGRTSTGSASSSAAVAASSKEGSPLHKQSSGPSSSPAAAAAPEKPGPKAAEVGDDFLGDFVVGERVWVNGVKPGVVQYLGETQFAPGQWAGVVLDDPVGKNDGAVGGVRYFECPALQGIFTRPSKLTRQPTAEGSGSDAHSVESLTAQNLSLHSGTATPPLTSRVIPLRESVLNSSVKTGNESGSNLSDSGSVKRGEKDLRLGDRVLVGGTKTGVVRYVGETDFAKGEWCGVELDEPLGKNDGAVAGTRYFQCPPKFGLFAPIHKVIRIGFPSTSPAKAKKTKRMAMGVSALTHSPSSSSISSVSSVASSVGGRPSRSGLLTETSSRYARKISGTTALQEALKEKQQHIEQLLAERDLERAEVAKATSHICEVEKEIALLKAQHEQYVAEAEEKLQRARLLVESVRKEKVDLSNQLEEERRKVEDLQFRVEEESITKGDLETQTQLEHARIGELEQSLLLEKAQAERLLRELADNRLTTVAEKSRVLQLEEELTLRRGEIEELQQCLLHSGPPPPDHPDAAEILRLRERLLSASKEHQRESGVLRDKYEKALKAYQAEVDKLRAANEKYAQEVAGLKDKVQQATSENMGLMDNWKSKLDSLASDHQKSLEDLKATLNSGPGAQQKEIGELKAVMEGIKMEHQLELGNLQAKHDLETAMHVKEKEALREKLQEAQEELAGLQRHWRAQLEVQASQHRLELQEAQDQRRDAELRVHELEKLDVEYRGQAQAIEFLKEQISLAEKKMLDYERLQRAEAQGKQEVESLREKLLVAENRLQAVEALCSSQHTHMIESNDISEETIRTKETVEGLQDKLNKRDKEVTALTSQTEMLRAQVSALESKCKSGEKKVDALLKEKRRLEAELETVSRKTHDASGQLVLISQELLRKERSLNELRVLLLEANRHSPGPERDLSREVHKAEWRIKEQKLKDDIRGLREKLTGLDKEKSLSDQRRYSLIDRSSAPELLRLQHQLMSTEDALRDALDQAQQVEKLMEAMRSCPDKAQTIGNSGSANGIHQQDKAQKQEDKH
UniProt Q9UHY1: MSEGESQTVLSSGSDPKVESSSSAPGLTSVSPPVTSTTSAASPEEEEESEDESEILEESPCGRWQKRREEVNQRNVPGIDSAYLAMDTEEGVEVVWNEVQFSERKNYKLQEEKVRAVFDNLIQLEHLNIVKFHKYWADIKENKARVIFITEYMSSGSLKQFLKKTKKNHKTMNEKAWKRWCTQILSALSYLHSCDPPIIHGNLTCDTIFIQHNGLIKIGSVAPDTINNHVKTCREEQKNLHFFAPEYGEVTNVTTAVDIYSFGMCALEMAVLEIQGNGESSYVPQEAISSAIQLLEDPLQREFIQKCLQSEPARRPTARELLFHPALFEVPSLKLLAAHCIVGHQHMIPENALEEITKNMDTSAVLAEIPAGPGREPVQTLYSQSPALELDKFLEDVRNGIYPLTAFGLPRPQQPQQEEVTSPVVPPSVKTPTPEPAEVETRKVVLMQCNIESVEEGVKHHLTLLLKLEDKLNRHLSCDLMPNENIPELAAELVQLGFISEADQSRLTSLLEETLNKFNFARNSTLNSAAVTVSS
UniProt Q9UK45: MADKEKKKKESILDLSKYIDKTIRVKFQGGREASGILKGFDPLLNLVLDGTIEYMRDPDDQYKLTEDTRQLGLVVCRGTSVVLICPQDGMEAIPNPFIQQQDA
UniProt Q9NW75: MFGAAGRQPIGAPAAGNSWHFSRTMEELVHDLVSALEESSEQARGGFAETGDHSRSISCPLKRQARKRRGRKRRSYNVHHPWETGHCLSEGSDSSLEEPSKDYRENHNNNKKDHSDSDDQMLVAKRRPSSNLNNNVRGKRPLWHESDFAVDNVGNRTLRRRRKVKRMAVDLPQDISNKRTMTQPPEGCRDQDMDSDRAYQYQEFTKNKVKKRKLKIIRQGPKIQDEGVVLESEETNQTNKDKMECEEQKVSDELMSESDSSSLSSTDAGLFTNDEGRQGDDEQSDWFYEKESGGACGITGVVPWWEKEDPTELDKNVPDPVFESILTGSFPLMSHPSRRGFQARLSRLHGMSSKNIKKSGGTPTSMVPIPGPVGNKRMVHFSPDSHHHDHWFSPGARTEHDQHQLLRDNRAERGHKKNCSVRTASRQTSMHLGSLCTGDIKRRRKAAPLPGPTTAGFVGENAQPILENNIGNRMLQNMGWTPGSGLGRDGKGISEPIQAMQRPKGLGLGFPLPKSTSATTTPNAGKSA

Compound: Nc1nc2c(ncn2[C@@H]2O[C@H](COP(=O)(O)OP(=O)(O)OP(=O)(O)O)[C@@H](O)[C@H]2O)c(=O)[nH]1 [guanosine triphosphate]
Assay: NP40-soluble protein abundance relative to vehicle (solubility fold change) (ratio); higher = more soluble protein in presence of GTP
Method in brief: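 Jurkat crude lysate prepared with a Dounce homogeniser was treated at eight concentrations spanning 0.1 to 10 mM, 10 min at room temperature then 3 min at 37 °C. Solubilisation with 0.8% NP40 and benzonase and ultracentrifugation preceded TMT labelling of the supernatant for LC-MS/MS. Fold change against the detergent-processed vehicle was determined per replicate from vsn-normalised intensities, across three independent experiments.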

Target	NP40-soluble protein abundance (concentration: 0.1mM)	NP40-soluble protein abundance (concentration: 0.5mM)	NP40-soluble protein abundance (concentration: 1mM)	NP40-soluble protein abundance (concentration: 2mM)	NP40-soluble protein abundance (concentration: 4mM)	NP40-soluble protein abundance (concentration: 6mM)	NP40-soluble protein abundance (concentration: 8mM)	NP40-soluble protein abundance (concentration: 10mM)
UniProt Q9NW08 and related entries	1.08 ± 0.03	1.13 ± 0.075	1.09 ± 0.12	1.15 ± 0.18	1.19 ± 0.16	1.16 ± 0.19	1.13 ± 0.18	1.09 ± 0.17
UniProt Q9UL54-2|Q9UL54 and related entries	1.02 ± 0.16	1.12 ± 0.15	1.07 ± 0.073	1.13 ± 0.094	1.12 ± 0.073	1.08 ± 0.16	1.19 ± 0.14	1.16 ± 0.11
RCC2 (UniProt Q9P258)	1.02 ± 0.078	1.03 ± 0.062	0.902 ± 0.084	0.882 ± 0.16	0.842 ± 0.22	0.883 ± 0.11	0.897 ± 0.083	0.851 ± 0.11
AKAP8L (UniProt Q9ULX6)	0.987 ± 0.024	0.994 ± 0.023	1.02 ± 0.052	1.02 ± 0.056	1.02 ± 0.12	1.02 ± 0.073	1.03 ± 0.059	1.02 ± 0.065
UniProt Q9UK58 and related entries	1.06 ± 0.09	1.08 ± 0.053	1.05 ± 0.11	1.07 ± 0.099	1.04 ± 0.093	0.9 ± 0.1	0.915 ± 0.054	0.856 ± 0.092
UniProt Q9UKI8 and related entries	0.999 ± 0.035	0.983 ± 0.044	0.912 ± 0.048	0.906 ± 0.053	0.886 ± 0.063	0.913 ± 0.048	0.892 ± 0.096	0.887 ± 0.068
UniProt Q9NX47	0.989 ± 0.058	1.05 ± 0.099	0.964 ± 0.13	0.901 ± 0.052	0.947 ± 0.061	1.01 ± 0.11	0.8561 ± 0.0048	0.8842 ± 0.0023
CDKN2AIP (UniProt Q9NXV6)	0.979 ± 0.033	0.99 ± 0.058	1.01 ± 0.019	0.989 ± 0.035	1.01 ± 0.023	1 ± 0.031	1.04 ± 0.029	1.04 ± 0.03
UniProt Q9NUP7	1.01 ± 0.045	1.01 ± 0.043	0.984 ± 0.08	0.94 ± 0.11	0.945 ± 0.12	0.905 ± 0.085	0.932 ± 0.078	0.913 ± 0.14
CYB5R1 (UniProt Q9UHQ9)	0.993 ± 0.029	1.07 ± 0.053	0.92 ± 0.051	0.934 ± 0.083	0.869 ± 0.09	0.877 ± 0.067	0.853 ± 0.072	0.872 ± 0.086
ARMCX3 (UniProt Q9UH62)	0.99 ± 0.12	1.02 ± 0.12	0.987 ± 0.12	1.01 ± 0.13	1 ± 0.071	1.05 ± 0.068	0.914 ± 0.12	1.02 ± 0.11
UniProt Q9NY93 and related entries	1.02 ± 0.045	1.01 ± 0.035	0.984 ± 0.022	0.997 ± 0.021	0.989 ± 0.063	0.98 ± 0.035	0.989 ± 0.036	1.02 ± 0.068
UniProt Q9UG63 and related entries	1.1 ± 0.076	1.11 ± 0.014	1.07 ± 0.072	1.35 ± 0.072	1.83 ± 0.061	2.15 ± 0.12	2.39 ± 0.11	2.744 ± 0.018
FAM8A1 (UniProt Q9UBU6)	0.961 ± 0.086	0.957 ± 0.081	1.0698 ± 0.00034	1.05 ± 0.0056	0.951 ± 0.1	0.991 ± 0.095	1.01 ± 0.12	0.978 ± 0.089
UniProt Q9P0J1 and related entries	1.03 ± 0.058	1.02 ± 0.079	0.938 ± 0.033	1.06 ± 0.019	1.04 ± 0.025	0.968 ± 0.058	0.95 ± 0.047	0.911 ± 0.065
SEL1L (UniProt Q9UBV2)	1.02 ± 0.061	1 ± 0.051	1.03 ± 0.063	0.977 ± 0.039	1.01 ± 0.076	1.01 ± 0.032	1.04 ± 0.048	0.994 ± 0.017
SLTM (UniProt Q9NWH9)	0.953 ± 0.055	0.968 ± 0.066	0.991 ± 0.077	0.987 ± 0.092	1.03 ± 0.08	1.1 ± 0.09	1.16 ± 0.094	1.18 ± 0.12
DIP2B (UniProt Q9P265)	1.01 ± 0.03	0.997 ± 0.034	0.951 ± 0.018	0.982 ± 0.043	0.973 ± 0.044	0.969 ± 0.031	0.958 ± 0.041	0.924 ± 0.049
UniProt Q9UJU2 and related entries	0.892 ± 0.033	0.88 ± 0.011	0.978 ± 0.053	0.962 ± 0.054	0.938 ± 0.092	0.944 ± 0.079	0.99 ± 0.077	1.08 ± 0.092
UniProt Q9NVM9	1.028 ± 0.01	1.05 ± 0.041	1.005 ± 0.0071	1.04 ± 0.034	1.06 ± 0.023	1.07 ± 0.036	1.09 ± 0.063	1.06 ± 0.043
LRWD1 (UniProt Q9UFC0)	1.05 ± 0.011	1.04 ± 0.012	1.01 ± 0.017	1.03 ± 0.027	1.062 ± 0.0054	1 ± 0.012	1.04 ± 0.022	1.02 ± 0.015
UniProt Q9UDT6 and related entries	1.09 ± 0.23	1.05 ± 0.08	1.15 ± 0.23	1.12 ± 0.13	1.1 ± 0.18	1.16 ± 0.089	1.14 ± 0.2	1.13 ± 0.17
SMARCAL1 (UniProt Q9NZC9)	1.03 ± 0.049	1.06 ± 0.042	1.03 ± 0.029	1.04 ± 0.023	1.1 ± 0.026	1.06 ± 0.04	1.06 ± 0.079	1.06 ± 0.038
TBC1D13 (UniProt Q9NVG8)	0.962 ± 0.036	0.985 ± 0.048	0.927 ± 0.046	0.896 ± 0.047	0.857 ± 0.071	0.866 ± 0.066	0.847 ± 0.1	0.822 ± 0.089
UniProt Q9UER7 and related entries	0.948 ± 0.067	0.948 ± 0.042	0.998 ± 0.058	0.986 ± 0.082	0.97 ± 0.067	0.979 ± 0.051	0.993 ± 0.06	1.05 ± 0.12
UniProt Q9P2X0-2	0.92 ± 0.02	0.84 ± 0.041	0.822 ± 0.1	0.903 ± 0.077	0.932 ± 0.071	0.933 ± 0.061	0.811 ± 0.016	0.899 ± 0.055
UniProt Q9UHY1 and related entries	0.99 ± 0.024	0.959 ± 0.027	1.01 ± 0.035	0.972 ± 0.039	0.967 ± 0.073	0.97 ± 0.049	0.954 ± 0.07	0.949 ± 0.033
UniProt Q9UII2	0.946 ± 0.08	0.972 ± 0.11	1.01 ± 0.078	0.936 ± 0.1	0.875 ± 0.1	0.908 ± 0.14	0.93 ± 0.07	0.963 ± 0.07
UniProt Q9UK45 and related entries	1.05 ± 0.22	1 ± 0.15	1.12 ± 0.24	1.07 ± 0.21	1.04 ± 0.2	1.08 ± 0.17	1.06 ± 0.22	1.07 ± 0.22
UniProt Q9NW75 and related entries	0.879 ± 0.058	0.9052 ± 0.0019	0.896 ± 0.019	0.874 ± 0.0054	0.83 ± 0.029	0.8403 ± 0.0062	0.807 ± 0.031	0.8354 ± 0.0071

Complete entries as entered above:
UniProt Q9UKI8 and related entries reads NP40-soluble protein abundance (concentration: 0.1mM): 0.999 ± 0.035; NP40-soluble protein abundance (concentration: 0.5mM): 0.983 ± 0.044; NP40-soluble protein abundance (concentration: 1mM): 0.912 ± 0.048; NP40-soluble protein abundance (concentration: 2mM): 0.906 ± 0.053; NP40-soluble protein abundance (concentration: 4mM): 0.886 ± 0.063; NP40-soluble protein abundance (concentration: 6mM): 0.913 ± 0.048; NP40-soluble protein abundance (concentration: 8mM): 0.892 ± 0.096; NP40-soluble protein abundance (concentration: 10mM): 0.887 ± 0.068
SLTM (UniProt Q9NWH9) reads NP40-soluble protein abundance (concentration: 0.1mM): 0.953 ± 0.055; NP40-soluble protein abundance (concentration: 0.5mM): 0.968 ± 0.066; NP40-soluble protein abundance (concentration: 1mM): 0.991 ± 0.077; NP40-soluble protein abundance (concentration: 2mM): 0.987 ± 0.092; NP40-soluble protein abundance (concentration: 4mM): 1.03 ± 0.08; NP40-soluble protein abundance (concentration: 6mM): 1.1 ± 0.09; NP40-soluble protein abundance (concentration: 8mM): 1.16 ± 0.094; NP40-soluble protein abundance (concentration: 10mM): 1.18 ± 0.12
